Experimental data taken from PMC11164925.
For at least one entry, the source does not settle the construct or the ends of the probe.

Tested on: ParR
Experiment: EMSA
Details: 275 ng parC, 24-720 uM ParR, 0.1 ug/uL salmon sperm DNA competitor; 5' biotin on forward primer (biotinylated primer; exact position not stated); 20 mM HEPES pH 7.6, 150 mM KCl, 5 mM MgCl2, 1 mM DTT, 1 mg/ml BSA, 0.1 ug/uL sonicated salmon sperm DNA, 5% glycerol, room temperature 30 min; 1.5% magnesium-agarose gel; recombinant protein; protein details: N-terminal 6-His (pET28a, not cleaved); label: biotin

## CATATGTTGTTACCCGCCAAACAAAACCCAAAAACAACCCATACCCAACCCAATAAAACACCAAAACAAGACAAATAATCATTGATTGATGGTTGAAATGGGGTAAACTTGACAAACAAACCCACTTAAAACCCAAAACATACCCAAACACACACCAAAAAAACACCATAAGGAGTTTTATAAATGTTGGTATTCATTGATGACGGTTCAACAAACATCAAACTGGATCC (double strand) [biotinylated parC (230 bp)]
  binding result: binds
